Test results reported in PMC7405385.
The exact form of at least one protein or probe is not confirmed. Results from cells or extracts need not show a direct contact. For part of these data: The comparison behind a weaker result is the experiment's own reference, which may not be listed here.

Assays:
[1] = test system: STAT2 T404E + STAT1 + IRF9; assay: EMSA; conditions: IFN-beta 1 h, greatly enhanced vs WT; Gelshift Chemiluminescent EMSA kit (Active Motif) per instructions; nuclear extracts; 500-fold molar excess unlabeled probe for competition; protein in an extract; label: 3' biotin
[2] = test system: STAT2 T404A + STAT1 + IRF9; assay: EMSA; conditions: IFN-beta 1 h, severely inhibited vs WT; Gelshift Chemiluminescent EMSA kit (Active Motif) per instructions; nuclear extracts; 500-fold molar excess unlabeled probe for competition; protein in an extract; label: 3' biotin
STAT2 WT + STAT1 + IRF9 = assay: EMSA (supershift with STAT1, STAT2, IRF9 antibodies); conditions: IFN-beta 1 h; Gelshift Chemiluminescent EMSA kit (Active Motif) per instructions; nuclear extracts; 500-fold molar excess unlabeled probe for competition; protein in an extract; label: 3' biotin

“GGGAAAGGGAAACCGAAACTGA (double strand) [ISRE (ISG15) probe]”: binds [1]; binds more weakly [2]; binds (STAT2 WT + STAT1 + IRF9).
